Results as given in patent US20190010237A1.
No constants are given. Whether binding was seen depends on the method and setting. Some entries that bind do so weakly or less than the wild type.

Amino acid sequences for entries named in this document (tags omitted). Residues count along the entry.
UniProt P16471, residues 25-234: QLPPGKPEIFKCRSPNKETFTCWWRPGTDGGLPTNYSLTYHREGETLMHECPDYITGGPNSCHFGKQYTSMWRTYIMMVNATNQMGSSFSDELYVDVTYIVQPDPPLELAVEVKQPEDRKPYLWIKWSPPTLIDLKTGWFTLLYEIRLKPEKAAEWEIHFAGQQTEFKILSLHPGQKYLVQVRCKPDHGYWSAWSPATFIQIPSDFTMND

Biological target: PRLR (prolactin receptor, as named in the kinetics and crystallography paragraph) (UniProt P16471)
Assay: X-ray crystallography of the complex

binding: binds
B1: h16f Fab fragment (Fab, V domains shown)
VH: EVQLVQSGAEVKKPGSSVKVSCKASGYTFTTYWMHWVRQAPGQGLEWIGEIDPSDSYSNYNQKFKDRATLTVDKSTSTAYMELSSLRSEDTAVYYCARNGGLGPAWFSYWGQGTLVTVSS
VL: DIQMTQSPSSVSASVGDRVTITCKASQYVGTAVAWYQQKPGKSPKLLIYSASNRYTGVPSRFSDSGSGTDFTLTISSLQPEDFATYFCQQYSSYPWTFGGGTKVEIK
